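Rh41 rhabdomyosarcoma cells exposed to compounds for 48 hours, with viability measured as CellTiter-Glo luminescence from metabolically active cells.
Compounds were run as 8- or 11-point dilution series reaching a top final concentration of 46 µM.
The number is the fitted potency (AC50, nM) for loss of viability, and lower values mean a more potent cytotoxic compound.
Calls come from curve class and activity score: active scores 40-100 for well-fitted killing curves, inconclusive scores 1-39 for weak, partial, poorly fitted or top-dose-only curves.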

Values are in nM.
All entries here are filed as inconclusive.
Only part of the assay is shown, chiefly results filed as inconclusive.
A potency from a partial, single-point or poor curve is only a rough figure.
Activity scores are not listed here.

compound | Potency (nM) | curve as filed
O=c1cc(N2CCOCC2)oc2c(-c3ccccc3)cccc12 | 9350 | cytotoxic, partial curve
CCC(=O)NC[C@H](Cc1ccc(OCCc2nc(-c3ccccc3)oc2C)cc1)NC(C)=CC(=O)c1ccc(C(F)(F)F)cc1 | 23484 | cytotoxic, single point
CCNC(=O)Nc1ccc2ncc(Nc3ccc(C)cc3)nc2n1 | 1177 | cytotoxic, partial curve, poor fit
COc1cc(OC)c(C(=O)CCCN2CCCC2)c(OC)c1 | 20930 | cytotoxic, partial curve
O=C(O)c1cccc(-c2noc(-c3ccccc3F)n2)c1 | 16626 | cytotoxic, partial curve, poor fit
COC(=O)N1CCN(Cc2cccc(NC(=O)Nc3ccc(C)nc3)c2F)CC1 | 1482 | cytotoxic, partial curve, poor fit
CC(C)=CC[C@@H](O)C1=CC(=O)c2c(O)ccc(O)c2C1=O | 23484 | cytotoxic, single point
CC(=O)O[C@H]1C[C@@H]2CC[C@H]3[C@H]4C[C@H]([N+]5(C)CCCCC5)[C@@H](OC(C)=O)[C@@]4(C)CC[C@@H]3[C@@]2(C)C[C@H]1N1CCCCC1 | 10490 | cytotoxic, partial curve
O=c1cc(N2CCOCC2)oc2c(-c3cccc4c3sc3ccccc34)cccc12 | 18654 | cytotoxic, partial curve
CN(C)S(=O)(=O)c1ccc2c(c1)C(=Cc1cc3c([nH]1)CCCC3)C(=O)N2 | 18654 | cytotoxic, partial curve
O=C(c1cncc(Br)c1)N1CCC(N2CCCC2)CC1 | 14817 | cytotoxic, partial curve
COc1cc([C@H]2Oc3cc([C@H]4Oc5cc(O)cc(O)c5C(=O)[C@H]4O)ccc3O[C@H]2CO)ccc1O | 18654 | cytotoxic, partial curve
Nc1cc(C(F)(F)F)ccc1S | 1189 | cytotoxic, full curve, poor fit
CC(C)(C)c1nc(-c2cccc(NS(=O)(=O)c3c(F)cccc3F)c2F)c(-c2ccnc(N)n2)s1 | 1177 | cytotoxic, partial curve
O=C(NOCC1CC1)c1ccc(F)c(F)c1Nc1ccc(I)cc1Cl | 23484 | cytotoxic, partial curve
O=c1cc(-c2cccc3c2Sc2ccccc2S3)oc(N2CCOCC2)c1 | 11770 | cytotoxic, partial curve
COC(=O)C1C2CC3c4[nH]c5cc(OC)ccc5c4CCN3CC2CC(OC(=O)c2cc(OC)c(OC)c(OC)c2)C1OC (stereo not drawn) | 29565 | cytotoxic, single point
CCCCCNC(=O)N1CCC(CN(Cc2ccc(Cl)cc2)Cc2ccc([N+](=O)[O-])s2)C1 (stereo not drawn) | 18654 | cytotoxic, partial curve
CNC(=O)c1cc(COc2nnc(Nc3ccc(Cl)cc3)c3ccoc23)ccn1 | 18654 | cytotoxic, partial curve
N#Cc1ccc(C(c2ccc(C#N)cc2)n2cncn2)cc1 | 14817 | cytotoxic, partial curve
Cc1cc(O)c2ccccc2c1O | 23715 | cytotoxic, single point
Cc1onc(-c2ccccc2)c1C(=O)N[C@@H]1C(=O)N2[C@@H](C(=O)O)C(C)(C)S[C@@H]12 | 16626 | cytotoxic, partial curve, poor fit
COC(=O)N[C@H](C(=O)N1CCC[C@@H]1c1ncc(-c2ccc(-c3ccc(-c4cnc([C@@H]5CCCN5C(=O)[C@@H](NC(=O)OC)C(C)C)[nH]4)cc3)cc2)[nH]1)C(C)C | 23484 | cytotoxic, partial curve
CCCS(=O)c1ccc2nc(NC(=O)OC)[nH]c2c1 (stereo not drawn) | 18654 | cytotoxic, partial curve
N#CC(=Cc1ccc(O)c(O)c1)C(=O)NCc1ccccc1 | 13206 | cytotoxic, partial curve
CNC(=O)c1cc(Oc2ccc(NC(=O)Nc3ccc(Cl)c(C(F)(F)F)c3)c(F)c2)ccn1 | 16626 | cytotoxic, partial curve
NC(CO)(CO)CCc1ccc(Sc2cccc(OCc3ccccc3)c2)cc1Cl | 29565 | cytotoxic, single point
CCc1cccc(N(C)C(N)=Nc2cccc3ccccc23)c1 | 16788 | cytotoxic, partial curve, poor fit
O=c1c(O)c(-c2ccc(O)c(O)c2)oc2cc(O)ccc12 | 18654 | cytotoxic, partial curve
CCOC(=O)N[C@@H]1CC[C@@H]2[C@@H](C1)C[C@H]1C(=O)O[C@H](C)[C@H]1[C@@H]2C=Cc1ccc(-c2cccc(F)c2)cn1 | 18654 | cytotoxic, partial curve
Cc1ccc2c(c1)C(=O)[C@]1(O)CCN(c3ccccc3)C1=N2 | 16626 | cytotoxic, partial curve
Nc1nc2ccc(OC(F)(F)F)cc2s1 | 16626 | cytotoxic, partial curve
NC(=O)c1ccc(I)c([N+](=O)[O-])c1 | 20930 | cytotoxic, single point
Cn1c(=O)c(F)c(Nc2ccc(I)cc2F)c2c(=O)n(C[C@@H](O)CO)cnc21 | 10490 | cytotoxic, partial curve
C[C@]12CCC3c4ccc(O)cc4CCC3C1CCC2=O (stereo partly drawn) | 5258 | cytotoxic, partial curve, poor fit
CCC(C)SSc1ncc[nH]1 (stereo not drawn) | 14817 | cytotoxic, partial curve

Some entries from above, unchanged:

{"compound": "COc1cc([C@H]2Oc3cc([C@H]4Oc5cc(O)cc(O)c5C(=O)[C@H]4O)ccc3O[C@H]2CO)ccc1O", "Potency (nM)": "18654", "curve as filed": "cytotoxic, partial curve"}
{"compound": "O=c1c(O)c(-c2ccc(O)c(O)c2)oc2cc(O)ccc12", "Potency (nM)": "18654", "curve as filed": "cytotoxic, partial curve"}

From PubChem BioAssay record AID1347108 (NCATS, 2019).